Results taken from publication PMC6177467.
These are yes or no findings as the source states them, for the method shown. For some of these results: In cells and extracts the contact can be indirect. Some results given as binding are weak or reduced against the parent protein; the word gives no strength.

Chains of the proteins cited; added tags and fusions are not shown.
UniProt P38398: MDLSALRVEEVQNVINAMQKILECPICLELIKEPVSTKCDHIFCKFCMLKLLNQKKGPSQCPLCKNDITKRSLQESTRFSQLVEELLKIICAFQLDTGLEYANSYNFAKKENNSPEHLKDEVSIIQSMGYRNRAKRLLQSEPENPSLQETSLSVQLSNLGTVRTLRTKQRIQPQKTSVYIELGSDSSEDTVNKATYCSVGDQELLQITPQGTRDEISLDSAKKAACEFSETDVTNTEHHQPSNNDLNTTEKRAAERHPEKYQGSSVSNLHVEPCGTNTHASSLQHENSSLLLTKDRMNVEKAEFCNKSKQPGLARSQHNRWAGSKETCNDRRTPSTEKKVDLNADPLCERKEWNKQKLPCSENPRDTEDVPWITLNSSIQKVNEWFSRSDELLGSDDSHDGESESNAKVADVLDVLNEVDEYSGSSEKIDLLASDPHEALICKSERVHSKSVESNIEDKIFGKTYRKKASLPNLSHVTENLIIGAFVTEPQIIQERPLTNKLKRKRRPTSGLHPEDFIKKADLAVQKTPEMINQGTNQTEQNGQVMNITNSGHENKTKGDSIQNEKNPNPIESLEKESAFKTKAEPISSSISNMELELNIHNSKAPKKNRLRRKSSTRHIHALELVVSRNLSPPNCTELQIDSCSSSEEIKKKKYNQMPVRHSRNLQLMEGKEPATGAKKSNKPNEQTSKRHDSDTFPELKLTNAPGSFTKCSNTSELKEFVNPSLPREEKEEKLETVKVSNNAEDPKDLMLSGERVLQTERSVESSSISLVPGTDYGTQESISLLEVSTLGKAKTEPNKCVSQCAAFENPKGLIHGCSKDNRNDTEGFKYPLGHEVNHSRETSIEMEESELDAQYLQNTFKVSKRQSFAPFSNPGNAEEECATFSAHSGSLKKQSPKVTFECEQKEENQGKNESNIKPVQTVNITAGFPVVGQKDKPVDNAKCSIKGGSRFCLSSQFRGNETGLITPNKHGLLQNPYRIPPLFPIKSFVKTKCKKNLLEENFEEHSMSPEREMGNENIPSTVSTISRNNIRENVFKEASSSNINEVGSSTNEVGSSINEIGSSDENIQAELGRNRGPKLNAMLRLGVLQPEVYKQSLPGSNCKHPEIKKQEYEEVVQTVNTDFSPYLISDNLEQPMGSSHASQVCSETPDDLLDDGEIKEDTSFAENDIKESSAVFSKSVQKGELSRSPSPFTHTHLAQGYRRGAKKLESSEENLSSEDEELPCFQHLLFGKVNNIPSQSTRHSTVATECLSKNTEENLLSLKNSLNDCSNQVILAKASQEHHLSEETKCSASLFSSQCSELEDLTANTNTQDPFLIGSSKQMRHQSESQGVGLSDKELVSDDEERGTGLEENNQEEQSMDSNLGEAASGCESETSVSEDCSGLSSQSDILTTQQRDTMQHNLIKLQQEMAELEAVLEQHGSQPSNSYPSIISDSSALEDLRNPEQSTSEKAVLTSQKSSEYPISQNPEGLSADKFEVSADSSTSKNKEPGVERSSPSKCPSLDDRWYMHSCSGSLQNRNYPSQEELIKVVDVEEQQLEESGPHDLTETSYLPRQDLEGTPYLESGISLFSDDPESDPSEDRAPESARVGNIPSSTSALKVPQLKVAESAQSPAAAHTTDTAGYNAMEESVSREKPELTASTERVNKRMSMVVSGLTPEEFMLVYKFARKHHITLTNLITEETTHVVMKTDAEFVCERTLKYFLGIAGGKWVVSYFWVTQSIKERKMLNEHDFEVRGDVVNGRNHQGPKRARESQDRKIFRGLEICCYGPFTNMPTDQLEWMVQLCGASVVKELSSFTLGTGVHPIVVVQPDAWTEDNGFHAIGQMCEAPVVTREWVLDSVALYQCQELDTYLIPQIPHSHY

Experiments:
[1] = biological target: T1, P73 (human (endogenous in ARP)) (UniProt O15350); test: co-IP; endogenous proteins; nuclear lysates of ARP cells, control (DMSO) or treated with 5 µM API3 for 24 h, immunoprecipitated with anti-P73 antibody or IgG (control); Western blot probed with anti-APEX1 antibody
T1 sequence: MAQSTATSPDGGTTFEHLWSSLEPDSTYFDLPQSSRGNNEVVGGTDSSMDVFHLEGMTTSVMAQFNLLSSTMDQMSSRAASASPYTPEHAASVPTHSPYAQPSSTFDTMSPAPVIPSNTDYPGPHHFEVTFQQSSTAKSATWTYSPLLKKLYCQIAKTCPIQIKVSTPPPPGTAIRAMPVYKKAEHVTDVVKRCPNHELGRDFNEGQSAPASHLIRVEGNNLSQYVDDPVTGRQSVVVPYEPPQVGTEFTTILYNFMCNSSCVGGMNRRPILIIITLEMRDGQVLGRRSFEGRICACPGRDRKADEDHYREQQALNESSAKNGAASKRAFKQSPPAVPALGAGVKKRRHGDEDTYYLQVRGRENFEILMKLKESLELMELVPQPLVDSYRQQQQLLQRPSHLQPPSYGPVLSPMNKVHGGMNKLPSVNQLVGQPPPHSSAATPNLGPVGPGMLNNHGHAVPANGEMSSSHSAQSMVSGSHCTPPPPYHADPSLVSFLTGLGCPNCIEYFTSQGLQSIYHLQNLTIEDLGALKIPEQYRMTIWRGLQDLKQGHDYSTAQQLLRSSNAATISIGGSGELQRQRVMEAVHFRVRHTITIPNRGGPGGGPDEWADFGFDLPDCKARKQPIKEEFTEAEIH

[2] = biological target: BRCA1 (human (endogenous in MM cells)) (UniProt P38398); test: peptide or protein array; antibody array: cell cycle antibody array (Hypromatrix, 60 antibodies) and/or custom array (40 antibodies) immobilised on nitrocellulose, incubated with MM cell lysate, then with HRP-conjugated anti-APEX1 or anti-APEX2 antibody; partners identified by their address on the array
[3] = biological target: P53 (human (endogenous in MM cells)) (UniProt P04637); test: as above
[4] = biological target: T1, P73 (human (endogenous in ARP)); test: as above

Measured: binding

APEX1 (from UniProt P27695 1-318) (enzyme)
binds: all assays above
